# Reference: the supplement of paper PMC8728848
# Some of the results follow.
# Columns and labels:
# Assay in all cases: glycan array binding signal (z-score within array); higher = stronger binding
# Conditions in all cases: glycan notation: IUPAC condensed, linker removed
# [1] = biological target: GlcNAc(b1-3)Gal(b1-4)GlcNAc(b1-3)Gal(b1-4)GlcNAc(b1-3)GalNAc
# In short: (§1)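 The binding signal is a Z-score computed within each array and averaged over linkers. Arrays of the same protein sequence at different concentrations or buffers were also averaged together. Data originate from 3228 arrays in the Consortium for Functional Glycomics database, kept only where the protein sequence was available.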
# [2] = biological target: GlcNAc(b1-3)Gal(b1-4)GlcNAc(b1-3)GalNAc
# In short: as §1
# [3] = biological target: GlcNAc(b1-3)Gal(b1-4)GlcNAc(b1-3)[GlcNAc(b1-3)Gal(b1-4)GlcNAc(b1-3)]GalNAc
# In short: as §1
# [4] = biological target: GlcNAc(b1-3)Gal(b1-4)GlcNAc(b1-6)[Gal(b1-3)]GalNAc
# In short: as §1
# [5] = biological target: GlcNAc(b1-3)Gal(b1-4)GlcNAc(b1-6)[GlcNAc(b1-3)Gal(b1-3)]GalNAc
# In short: as §1
# [6] = biological target: GlcNAc(b1-3)Gal(b1-4)GlcNAc(b1-6)[GlcNAc(b1-3)]Gal(b1-4)GlcNAc
# In short: as §1
# [7] = biological target: GlcNAc(b1-3)GalNAc
# In short: as §1
# [8] = biological target: GlcNAc(b1-3)Man
# In short: as §1
# [9] = biological target: GlcNAc(b1-3)[GlcNAc(b1-4)][GlcNAc(b1-6)]GlcNAc
# In short: as §1
# [10] = biological target: GlcNAc(b1-3)[GlcNAc(b1-6)]Gal(b1-4)GlcNAc
# In short: as §1
# [11] = biological target: GlcNAc(b1-3)[GlcNAc(b1-6)]GalNAc
# In short: as §1
# [12] = biological target: GlcNAc(b1-4)Gal(b1-4)GlcNAc
# In short: as §1
# [13] = biological target: GlcNAc(b1-4)GlcNAc
# In short: as §1
# [14] = biological target: GlcNAc(b1-4)GlcNAc(b1-4)GlcNAc
# In short: as §1
# [15] = biological target: GlcNAc(b1-4)GlcNAc(b1-4)GlcNAc(b1-4)GlcNAc(b1-4)GlcNAc
# In short: as §1
# [16] = biological target: GlcNAc(b1-4)GlcNAc(b1-4)GlcNAc(b1-4)GlcNAc(b1-4)GlcNAc(b1-4)GlcNAc
# In short: as §1
# [17] = biological target: GlcNAc(b1-4)[GlcNAc(b1-6)]GalNAc
# In short: as §1
# [18] = biological target: GlcNAc(b1-6)Gal(b1-4)GlcNAc
# In short: as §1
# [19] = biological target: GlcNAc(b1-6)GalNAc
# In short: as §1
# [20] = biological target: GlcNAc6S(b1-3)Gal(b1-4)GlcNAc
# In short: as §1
# [21] = biological target: Kdn(a2-3)Gal(b1-3)GalNAc
# In short: as §1
# [22] = biological target: Kdn(a2-3)Gal(b1-3)GlcNAc
# In short: as §1
# [23] = biological target: Kdn(a2-3)Gal(b1-4)Glc
# In short: as §1
# [24] = biological target: Kdn(a2-3)Gal(b1-4)GlcNAc
# In short: as §1
# [25] = biological target: Kdn(a2-3)Gal(b1-4)[Fuc(a1-3)]GlcNAc
# In short: as §1
# [26] = biological target: Kdn(a2-6)Gal(b1-4)GlcNAc
# In short: as §1
# [27] = biological target: Man(a1-2)Man(a1-2)Man(a1-3)Man
# In short: as §1
# [28] = biological target: Man(a1-2)Man(a1-2)Man(a1-6)[Man(a1-3)]Man
# In short: as §1
# [29] = biological target: Man(a1-2)Man(a1-3)Man
# In short: as §1
# [30] = biological target: Man(a1-2)Man(a1-3)[Man(a1-2)Man(a1-6)]Man
# In short: as §1
# [31] = biological target: Man(a1-2)Man(a1-3)[Man(a1-2)Man(a1-6)]Man(a1-6)[Man(a1-2)Man(a1-2)Man(a1-3)]Man
# In short: as §1
# [32] = biological target: Man(a1-2)Man(a1-3)[Man(a1-2)Man(a1-6)]Man(a1-6)[Man(a1-2)Man(a1-2)Man(a1-3)]Man(b1-4)GlcNAc(b1-4)GlcNAc
# In short: as §1
# [33] = biological target: Man(a1-2)Man(a1-3)[Man(a1-6)]Man(a1-6)[Man(a1-2)Man(a1-3)]Man(b1-4)GlcNAc(b1-4)GlcNAc
# In short: as §1
# [34] = biological target: Man(a1-2)Man(a1-6)[Man(a1-3)]Man(a1-6)[Man(a1-2)Man(a1-2)Man(a1-3)]Man
# In short: as §1
# [35] = biological target: Man(a1-2)Man(a1-6)[Man(a1-3)]Man(a1-6)[Man(a1-2)Man(a1-2)Man(a1-3)]Man(b1-4)GlcNAc(b1-4)GlcNAc
# In short: as §1
# [36] = biological target: Man(a1-3)[Man(a1-6)]Man
# In short: as §1
# [37] = biological target: Man(a1-3)[Man(a1-6)]Man(a1-6)[Man(a1-2)Man(a1-3)]Man(b1-4)GlcNAc(b1-4)GlcNAc
# In short: as §1
binder,measurement,setting,value
"HopZSSI-T (Helicobacter pylori), B5Z6D0 (protein) MGSSHHHHHHSSGLVPRGSHMENLYFQGEDNGFFISAGYQIGEAAQMVKNTGELKKLSDTYENLSNLLTNFNNLNQAVTNASSPSEINAAIDNLKANTQGLTGEKTNSPAYQAVYLALNAAVGLWNVIAYNVQCGPGNSSQQSVTFEGQPGHNSSSINCNLTGYNNGVSGPLSIDNFKQLNQAYQVLQQALKQGVPVLNNTNQKIEVKVTTQTNGQSSKETTTTTTTNDAQTLLQEASKMIDVLTTNCPWVNHNPGQNGGAPWGLIRQECVSGFATEFSAVTSMIKNAQEIVTQAQSLNANQNNQNAPQDFNPYTSADRAFAQNMLNHAQAQAKILELADQMKKDLNTIPSQFITNYLAACRIDGTTPSQGVTNNTWGAGCAYVEETITALNNSLAHFGTQAEQIKQSELLARTILDFRGSLSTLNSTYNSITTTASNTPNSPFLKNLISQSTNPNNPGGLQAVYQVNQSAYSQLLSATQELGHNPFRRIGLISSQT",glycan array binding signal (z-score),[1],0.308
same,glycan array binding signal (z-score),[2],-0.169
same,glycan array binding signal (z-score),[3],-0.515
same,glycan array binding signal (z-score),[4],-0.607
same,glycan array binding signal (z-score),[5],0.446
same,glycan array binding signal (z-score),[6],-0.127
same,glycan array binding signal (z-score),[7],-0.558
same,glycan array binding signal (z-score),[8],0.121
same,glycan array binding signal (z-score),[9],-0.47
same,glycan array binding signal (z-score),[10],-0.5
same,glycan array binding signal (z-score),[11],-0.108
same,glycan array binding signal (z-score),[12],-0.41
same,glycan array binding signal (z-score),[13],-0.456
same,glycan array binding signal (z-score),[14],-0.451
same,glycan array binding signal (z-score),[15],-0.8
same,glycan array binding signal (z-score),[16],-0.476
same,glycan array binding signal (z-score),[17],-0.345
same,glycan array binding signal (z-score),[18],-0.112
same,glycan array binding signal (z-score),[19],-0.307
same,glycan array binding signal (z-score),[20],-0.089
same,glycan array binding signal (z-score),[21],-0.302
same,glycan array binding signal (z-score),[22],0.73
same,glycan array binding signal (z-score),[23],0.371
same,glycan array binding signal (z-score),[24],0.049
same,glycan array binding signal (z-score),[25],0.44
same,glycan array binding signal (z-score),[26],0.273
same,glycan array binding signal (z-score),[27],-0.506
same,glycan array binding signal (z-score),[28],-0.601
same,glycan array binding signal (z-score),[29],0.122
same,glycan array binding signal (z-score),[30],0.69
same,glycan array binding signal (z-score),[31],-0.136
same,glycan array binding signal (z-score),[32],-0.189
same,glycan array binding signal (z-score),[33],-0.802
same,glycan array binding signal (z-score),[34],-0.645
same,glycan array binding signal (z-score),[35],-0.122
same,glycan array binding signal (z-score),[36],0.071
same,glycan array binding signal (z-score),[37],-0.359

# Part of the list above, tab-delimited.
binder	measurement	setting	value
HopZSSI-T (Helicobacter pylori), B5Z6D0 (protein) MGSSHHHHHHSSGLVPRGSHMENLYFQGEDNGFFISAGYQIGEAAQMVKNTGELKKLSDTYENLSNLLTNFNNLNQAVTNASSPSEINAAIDNLKANTQGLTGEKTNSPAYQAVYLALNAAVGLWNVIAYNVQCGPGNSSQQSVTFEGQPGHNSSSINCNLTGYNNGVSGPLSIDNFKQLNQAYQVLQQALKQGVPVLNNTNQKIEVKVTTQTNGQSSKETTTTTTTNDAQTLLQEASKMIDVLTTNCPWVNHNPGQNGGAPWGLIRQECVSGFATEFSAVTSMIKNAQEIVTQAQSLNANQNNQNAPQDFNPYTSADRAFAQNMLNHAQAQAKILELADQMKKDLNTIPSQFITNYLAACRIDGTTPSQGVTNNTWGAGCAYVEETITALNNSLAHFGTQAEQIKQSELLARTILDFRGSLSTLNSTYNSITTTASNTPNSPFLKNLISQSTNPNNPGGLQAVYQVNQSAYSQLLSATQELGHNPFRRIGLISSQT	glycan array binding signal (z-score)	[5]	0.446
same	glycan array binding signal (z-score)	[6]	-0.127
